Test results: patent US20210393690A1
These are yes or no findings as the source states them, for the method shown. Some results given as binding are weak or reduced against the parent protein; the word gives no strength.

Amino acid sequences for entries named in this document (tags omitted). Residues count along the entry.
UniProt Q02223, residues 1-54: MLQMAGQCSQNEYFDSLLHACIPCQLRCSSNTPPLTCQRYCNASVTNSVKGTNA

Target: recombinant human BCMA-hFc (soluble human BCMA fused at its C-terminus to an Fc region of IgG) (human) (UniProt Q02223)
Assay: flow cytometry of transduced primary CD4 and CD8 T cells stained with recombinant BCMA-Fc (rBCMA, y axis) and for the surrogate marker (x axis)

B1: BCMA-25-LS-O/SSE CAR (protein)
chain: EVQLVQSGGGLVQPGRSLRLSCTASGFTFGDYAMSWFRQAPGKGLEWVGFIRSKAYGGTTEYAASVKGRFTISRDDSKSIAYLQMNSLKTEDTAVYYCAAWSAPTDYWGQGTLVTVSSGGGGSGGGGSGGGGSDIQMTQSPAFLSASVGDRVTVTCRASQGISNYLAWYQQKPGNAPRLLIYSASTLQSGVPSRFRGTGYGTEFSLTIDSLQPEDFATYYCQQSYTSRQTFGPGTRLDIKESKYGPPCPPCPAPPVAGPSVFLFPPKPKDTLMISRTPEVTCVVVDVSQEDPEVQFNWYVDGVEVHNAKTKPREEQFQSTYRVVSVLTVLHQDWLNGKEYKCKVSNKGLPSSIEKTISKAKGQPREPQVYTLPPSQEEMTKNQVSLTCLVKGFYPSDIAVEWESNGQPENNYKTTPPVLDSDGSFFLYSRLTVDKSRWQEGNVFSCSVMHEALHNHYTQKSLSLSLGKMFWVLVVVGGVLACYSLLVTVAFIIFWVKRGRKKLLYIFKQPFMRPVQTTQEEDGCSCRFPEEEEGGCELRVKFSRSADAPAYQQGQNQLYNELNLGRREEYDVLDKRRGRDPEMGGKPRRKNPQEGLYNELQKDKMAEAYSEIGMKGERRRGKGHDGLYQGLSTATKDTYDALHMQALPPR
For B1, the binding was “binds”.
